In the supplement of paper PMC11732987, “Enantioselective OTUD7B fragment discovery through chemoproteomics screening and high-throughput optimisation” (Communications Chemistry, 2025):
The other results are listed elsewhere or left out. The data scatter; read single values as rough.

The chains behind the UniProt entries cited, without tags or fusion partners. Where a name states a change or a piece, a line headed by the entry shows the natural chain unless it says otherwise. Residues count along the entry.
UniProt P49454: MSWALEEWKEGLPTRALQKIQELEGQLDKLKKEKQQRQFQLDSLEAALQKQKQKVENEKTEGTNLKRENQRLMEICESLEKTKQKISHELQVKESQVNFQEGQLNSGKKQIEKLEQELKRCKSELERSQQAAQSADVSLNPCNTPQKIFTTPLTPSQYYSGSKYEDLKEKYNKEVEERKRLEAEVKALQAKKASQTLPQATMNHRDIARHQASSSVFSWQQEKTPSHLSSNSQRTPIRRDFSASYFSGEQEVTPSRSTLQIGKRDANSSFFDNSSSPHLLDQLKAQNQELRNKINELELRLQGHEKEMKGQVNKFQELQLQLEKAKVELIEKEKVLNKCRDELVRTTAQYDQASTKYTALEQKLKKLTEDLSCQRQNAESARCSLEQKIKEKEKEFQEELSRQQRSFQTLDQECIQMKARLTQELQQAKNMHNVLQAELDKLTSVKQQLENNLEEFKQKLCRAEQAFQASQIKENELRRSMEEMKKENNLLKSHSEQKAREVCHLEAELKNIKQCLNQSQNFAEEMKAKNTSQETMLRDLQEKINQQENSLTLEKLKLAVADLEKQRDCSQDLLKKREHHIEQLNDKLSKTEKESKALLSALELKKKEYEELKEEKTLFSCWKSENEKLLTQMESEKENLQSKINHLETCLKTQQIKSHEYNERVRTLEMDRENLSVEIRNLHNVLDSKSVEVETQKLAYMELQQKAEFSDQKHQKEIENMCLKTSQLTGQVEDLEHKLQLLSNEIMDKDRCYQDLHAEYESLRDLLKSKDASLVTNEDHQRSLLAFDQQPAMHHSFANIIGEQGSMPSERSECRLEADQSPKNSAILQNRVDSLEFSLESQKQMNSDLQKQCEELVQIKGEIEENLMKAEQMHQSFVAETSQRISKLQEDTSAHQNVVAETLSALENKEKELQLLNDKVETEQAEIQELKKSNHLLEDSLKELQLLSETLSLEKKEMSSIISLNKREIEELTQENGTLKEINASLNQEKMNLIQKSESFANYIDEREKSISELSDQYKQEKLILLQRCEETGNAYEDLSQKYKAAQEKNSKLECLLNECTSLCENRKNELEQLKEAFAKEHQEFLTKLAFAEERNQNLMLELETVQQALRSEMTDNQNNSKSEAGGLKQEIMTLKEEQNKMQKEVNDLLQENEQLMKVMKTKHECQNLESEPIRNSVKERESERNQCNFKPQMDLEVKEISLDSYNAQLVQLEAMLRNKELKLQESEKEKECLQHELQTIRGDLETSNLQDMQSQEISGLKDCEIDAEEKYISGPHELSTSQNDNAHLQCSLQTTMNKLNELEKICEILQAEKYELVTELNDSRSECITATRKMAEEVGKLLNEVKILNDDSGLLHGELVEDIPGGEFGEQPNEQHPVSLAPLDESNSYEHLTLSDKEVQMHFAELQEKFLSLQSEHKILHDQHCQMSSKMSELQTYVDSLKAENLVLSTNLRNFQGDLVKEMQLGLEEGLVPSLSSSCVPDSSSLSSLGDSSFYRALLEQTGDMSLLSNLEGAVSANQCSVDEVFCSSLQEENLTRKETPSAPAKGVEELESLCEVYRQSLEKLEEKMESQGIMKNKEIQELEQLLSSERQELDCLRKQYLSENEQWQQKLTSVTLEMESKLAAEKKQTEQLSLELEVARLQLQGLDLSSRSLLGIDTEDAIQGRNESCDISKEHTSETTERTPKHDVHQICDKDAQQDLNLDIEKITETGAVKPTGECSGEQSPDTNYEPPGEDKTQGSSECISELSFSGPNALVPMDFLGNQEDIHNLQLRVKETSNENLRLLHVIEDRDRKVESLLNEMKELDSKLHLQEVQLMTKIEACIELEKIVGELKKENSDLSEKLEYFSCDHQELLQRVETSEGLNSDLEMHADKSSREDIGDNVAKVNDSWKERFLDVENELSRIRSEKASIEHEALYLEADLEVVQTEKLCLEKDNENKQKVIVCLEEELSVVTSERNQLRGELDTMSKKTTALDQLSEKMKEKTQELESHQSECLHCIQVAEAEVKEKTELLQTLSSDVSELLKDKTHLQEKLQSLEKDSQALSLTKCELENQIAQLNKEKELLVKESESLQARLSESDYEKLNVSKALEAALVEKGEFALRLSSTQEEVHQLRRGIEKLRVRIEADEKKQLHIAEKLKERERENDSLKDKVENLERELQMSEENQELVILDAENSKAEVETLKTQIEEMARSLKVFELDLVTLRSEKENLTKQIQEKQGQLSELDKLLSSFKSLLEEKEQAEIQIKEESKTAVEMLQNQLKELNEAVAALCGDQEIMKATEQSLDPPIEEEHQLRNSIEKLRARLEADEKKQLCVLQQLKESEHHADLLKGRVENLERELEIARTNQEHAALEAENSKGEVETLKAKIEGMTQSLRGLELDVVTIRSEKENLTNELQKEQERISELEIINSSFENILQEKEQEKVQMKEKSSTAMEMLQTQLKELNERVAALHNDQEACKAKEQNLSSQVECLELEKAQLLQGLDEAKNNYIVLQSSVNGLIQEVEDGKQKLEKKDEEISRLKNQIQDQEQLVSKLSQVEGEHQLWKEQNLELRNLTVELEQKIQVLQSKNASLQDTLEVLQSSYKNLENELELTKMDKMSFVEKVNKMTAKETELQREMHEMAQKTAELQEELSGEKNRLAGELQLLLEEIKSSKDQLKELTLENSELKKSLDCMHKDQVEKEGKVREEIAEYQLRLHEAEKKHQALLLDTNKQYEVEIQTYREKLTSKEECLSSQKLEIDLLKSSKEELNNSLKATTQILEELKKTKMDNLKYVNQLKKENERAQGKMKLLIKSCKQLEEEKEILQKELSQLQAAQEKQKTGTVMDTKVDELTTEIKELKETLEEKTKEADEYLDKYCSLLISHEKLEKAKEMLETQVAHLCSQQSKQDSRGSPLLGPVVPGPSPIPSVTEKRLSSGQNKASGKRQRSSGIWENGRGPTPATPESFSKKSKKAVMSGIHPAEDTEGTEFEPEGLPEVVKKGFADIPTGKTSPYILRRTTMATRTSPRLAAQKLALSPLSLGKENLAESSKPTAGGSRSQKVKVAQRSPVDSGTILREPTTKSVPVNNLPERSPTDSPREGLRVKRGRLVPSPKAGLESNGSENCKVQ
UniProt Q13111, 65-90: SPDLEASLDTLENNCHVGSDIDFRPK
UniProt Q99741: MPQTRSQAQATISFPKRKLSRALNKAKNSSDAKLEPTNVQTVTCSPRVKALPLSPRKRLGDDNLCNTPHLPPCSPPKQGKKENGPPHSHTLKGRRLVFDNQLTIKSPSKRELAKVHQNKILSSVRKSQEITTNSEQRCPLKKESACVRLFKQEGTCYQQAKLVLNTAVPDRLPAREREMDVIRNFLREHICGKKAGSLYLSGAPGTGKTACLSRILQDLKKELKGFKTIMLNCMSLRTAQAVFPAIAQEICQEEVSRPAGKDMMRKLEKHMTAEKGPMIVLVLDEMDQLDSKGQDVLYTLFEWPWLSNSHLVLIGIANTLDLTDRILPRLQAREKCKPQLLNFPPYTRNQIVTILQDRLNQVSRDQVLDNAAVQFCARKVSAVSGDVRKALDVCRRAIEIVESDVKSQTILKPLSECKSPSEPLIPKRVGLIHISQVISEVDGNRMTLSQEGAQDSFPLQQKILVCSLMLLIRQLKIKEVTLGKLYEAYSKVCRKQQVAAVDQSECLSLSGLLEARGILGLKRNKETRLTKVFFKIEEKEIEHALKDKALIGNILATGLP
UniProt Q9Y6H1: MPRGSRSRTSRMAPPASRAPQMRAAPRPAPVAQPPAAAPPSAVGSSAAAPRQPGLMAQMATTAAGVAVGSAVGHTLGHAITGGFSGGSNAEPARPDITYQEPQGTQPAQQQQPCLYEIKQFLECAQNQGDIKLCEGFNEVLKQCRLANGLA
UniProt Q9BS16: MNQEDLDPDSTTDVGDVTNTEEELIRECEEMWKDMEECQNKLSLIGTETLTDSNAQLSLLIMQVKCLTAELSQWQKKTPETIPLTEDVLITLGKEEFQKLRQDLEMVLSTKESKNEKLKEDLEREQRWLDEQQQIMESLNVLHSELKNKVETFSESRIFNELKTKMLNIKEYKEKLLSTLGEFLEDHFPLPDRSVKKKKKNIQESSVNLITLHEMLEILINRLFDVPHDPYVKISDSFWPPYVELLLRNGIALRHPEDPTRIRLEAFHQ
UniProt Q96SN8: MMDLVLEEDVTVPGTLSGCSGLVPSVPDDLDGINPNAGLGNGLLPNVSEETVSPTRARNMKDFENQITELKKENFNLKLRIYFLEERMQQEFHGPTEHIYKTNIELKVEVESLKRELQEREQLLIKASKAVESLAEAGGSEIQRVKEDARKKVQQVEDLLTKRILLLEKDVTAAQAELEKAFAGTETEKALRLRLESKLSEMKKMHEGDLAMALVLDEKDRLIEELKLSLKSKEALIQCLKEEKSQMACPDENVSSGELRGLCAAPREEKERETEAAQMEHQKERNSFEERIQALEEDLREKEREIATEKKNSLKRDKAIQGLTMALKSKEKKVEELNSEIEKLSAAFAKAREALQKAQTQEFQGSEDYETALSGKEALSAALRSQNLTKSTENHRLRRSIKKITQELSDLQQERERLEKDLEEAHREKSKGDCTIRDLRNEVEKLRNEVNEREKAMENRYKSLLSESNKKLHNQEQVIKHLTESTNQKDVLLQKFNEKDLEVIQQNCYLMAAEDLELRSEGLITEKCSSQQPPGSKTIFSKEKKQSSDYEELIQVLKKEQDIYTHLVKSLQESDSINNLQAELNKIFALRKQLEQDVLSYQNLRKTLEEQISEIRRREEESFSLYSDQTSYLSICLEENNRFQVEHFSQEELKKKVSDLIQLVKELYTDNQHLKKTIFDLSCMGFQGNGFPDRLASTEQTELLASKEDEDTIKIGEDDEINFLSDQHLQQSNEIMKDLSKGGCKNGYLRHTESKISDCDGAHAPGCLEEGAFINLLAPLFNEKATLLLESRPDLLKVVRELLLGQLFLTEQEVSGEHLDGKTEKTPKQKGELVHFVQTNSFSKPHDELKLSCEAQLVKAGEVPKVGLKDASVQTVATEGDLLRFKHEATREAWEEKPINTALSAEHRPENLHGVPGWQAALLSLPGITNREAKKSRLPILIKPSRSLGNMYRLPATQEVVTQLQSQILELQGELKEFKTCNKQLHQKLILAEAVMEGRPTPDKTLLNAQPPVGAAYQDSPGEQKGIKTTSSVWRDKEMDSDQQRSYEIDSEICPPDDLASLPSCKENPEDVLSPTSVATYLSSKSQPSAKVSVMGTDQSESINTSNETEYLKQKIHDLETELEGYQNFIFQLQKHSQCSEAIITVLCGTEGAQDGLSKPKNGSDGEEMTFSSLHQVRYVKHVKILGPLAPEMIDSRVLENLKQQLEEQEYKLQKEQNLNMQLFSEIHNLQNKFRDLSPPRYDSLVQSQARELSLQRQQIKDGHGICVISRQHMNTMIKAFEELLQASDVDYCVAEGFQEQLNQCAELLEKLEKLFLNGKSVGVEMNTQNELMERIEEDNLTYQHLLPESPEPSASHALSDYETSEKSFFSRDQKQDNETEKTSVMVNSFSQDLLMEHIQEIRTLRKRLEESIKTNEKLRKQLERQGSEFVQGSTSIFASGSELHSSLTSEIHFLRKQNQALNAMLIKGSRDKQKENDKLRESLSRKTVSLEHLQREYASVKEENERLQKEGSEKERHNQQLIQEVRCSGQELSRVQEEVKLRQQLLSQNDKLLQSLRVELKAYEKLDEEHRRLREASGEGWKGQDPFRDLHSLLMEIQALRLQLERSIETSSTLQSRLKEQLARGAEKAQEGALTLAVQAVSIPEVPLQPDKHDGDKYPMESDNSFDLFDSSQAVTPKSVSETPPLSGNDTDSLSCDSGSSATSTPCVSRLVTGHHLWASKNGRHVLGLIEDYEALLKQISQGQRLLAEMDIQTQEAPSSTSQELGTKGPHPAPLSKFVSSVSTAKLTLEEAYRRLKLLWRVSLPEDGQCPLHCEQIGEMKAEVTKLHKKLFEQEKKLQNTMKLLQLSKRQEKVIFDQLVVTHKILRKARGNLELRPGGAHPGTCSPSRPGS
UniProt P32970: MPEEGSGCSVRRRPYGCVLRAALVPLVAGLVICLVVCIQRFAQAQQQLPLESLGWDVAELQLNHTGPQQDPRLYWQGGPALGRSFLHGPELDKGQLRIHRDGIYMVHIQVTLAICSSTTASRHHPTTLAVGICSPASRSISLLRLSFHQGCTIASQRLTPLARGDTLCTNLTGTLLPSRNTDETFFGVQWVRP
UniProt P11802: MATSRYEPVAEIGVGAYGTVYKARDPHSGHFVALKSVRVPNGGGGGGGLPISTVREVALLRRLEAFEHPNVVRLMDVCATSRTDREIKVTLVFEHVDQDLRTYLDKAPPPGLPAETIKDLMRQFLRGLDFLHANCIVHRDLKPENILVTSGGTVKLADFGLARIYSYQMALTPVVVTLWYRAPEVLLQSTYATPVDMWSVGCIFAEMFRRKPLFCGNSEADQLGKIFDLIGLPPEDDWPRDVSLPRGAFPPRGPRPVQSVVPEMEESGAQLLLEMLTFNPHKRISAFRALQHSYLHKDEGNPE

Legend:
[1] = compound: ClCC(=O)N[C@@H]1CCCc2ccccc12; assay: log2 mean competition ratio of IA-DTB cysteine labelling (DMSO/compound) (log2 ratio); higher = stronger cysteine engagement by compound; details: treatment time: 4 h, cell line lysate: HEK293T
Procedure: (§1)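 IA-DTB competitive cysteine chemoproteomics in HEK293T RIPA lysate. Lysates were treated with compound 29 or 30 at 50 or 200 µM for 4 h, then IA-DTB (500 µM, 1 h), trypsin-digested, NeutrAvidin-enriched and analysed by diaPASEF. Competition ratio = intensity DMSO / intensity compound (n=4 treated, n=64 DMSO); binding: mean log2 CR ≥ 1 and p ≤ 0.05 plus QC filters. Target is the cysteine site.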

[2] = compound: ClCC(=O)N[C@H]1CCCc2ccccc12; assay: as above; details: treatment time: 4 h, cell line lysate: HEK293T
Procedure: as §1

| Target | log2 mean competition ratio ([1]; 50 µM) | log2 mean competition ratio ([1]; 200 µM) | log2 mean competition ratio ([2]; 50 µM) | log2 mean competition ratio ([2]; 200 µM) |
| --- | --- | --- | --- | --- |
| CDCA2 C280 (UniProt Q69YH5) | -0.173 | 0.0262 | 0.0484 | 0.172 |
| CENPJ C294 (UniProt Q9HC77) | -0.206 | 0.156 | -0.363 | 0.276 |
| CENPF C722 (UniProt P49454) | -0.00697 | -0.192 | 0.174 | -0.101 |
| CHD1 C411 (UniProt O14646) | -0.153 | 0.0232 | 0.371 | -0.0848 |
| CDC42BPB C120 (UniProt Q9Y5S2) | -0.0175 | -0.0976 | 0.245 | -0.151 |
| CCT8 C244 | 0.361 | -0.0377 | 0.557 | 0.0706 |
| CEP41 C240 (UniProt Q9BYV8) | -0.0747 | -0.0569 | 0.149 | 0.0447 |
| CDC37 C336 | -0.11 | 0.122 | -0.168 | 0.235 |
| CCT5 C253 (UniProt P48643) | -0.0173 | -0.211 | -0.206 | -0.135 |
| CDC27 C137 | -0.123 | -0.149 | 0.0215 | -0.093 |
| CEP290 C383 (UniProt O15078) | 0.0378 | -0.36 | -0.141 | -0.169 |
| CEP192 C352 (UniProt Q8TEP8) | -0.0488 | 0.289 | 0.163 | 0.0397 |
| CENPF C1029 (UniProt P49454) | 0.364 | -0.184 | 0.0774 | -0.507 |
| CDC16 C544 (UniProt Q13042) | 0.537 | 0.568 | 0.0735 | 0.271 |
| CHAF1A C79 (UniProt Q13111) | 0.158 | 0.0906 | 0.0669 | -0.112 |
| CDC6 C44 (UniProt Q99741) | 0.0774 | -0.0154 | -0.0373 | -0.0067 |
| CENPB C259 (UniProt P07199) | 0.131 | -0.166 | 0.0478 | -0.0226 |

| Target | log2 mean competition ratio ([1]; 50 µM) | log2 mean competition ratio ([1]; 200 µM) | log2 mean competition ratio ([2]; 50 µM) | log2 mean competition ratio ([2]; 200 µM) |
| --- | --- | --- | --- | --- |
| CHCHD2 C134 (UniProt Q9Y6H1) | 0.121 | 0.231 | -0.0958 | 0.268 |
| CCDC93 C282 (UniProt Q567U6) | 0.0801 | -0.189 | -0.0782 | 0.0123 |
| CENPK C38 (UniProt Q9BS16) | -0.0338 | 0.0892 | -0.106 | 0.232 |
| CENPI C332 | 0.101 | 0.298 | -0.212 | 0.52 |
| CBX8 C142 (UniProt Q9HC52) | -0.0678 | 0.0194 | 0.222 | 0.0931 |
| CENPF C2464 (UniProt P49454) | -0.123 | 0.23 | -0.205 | -0.00415 |
| CDKAL1 C109 (UniProt Q5VV42) | 0.0543 | -0.175 | -0.101 | 0.113 |
| CDK5RAP2 C434 (UniProt Q96SN8) | -0.0185 | -0.202 | -0.171 | -0.129 |
| CD70 C8 (UniProt P32970) | -0.0851 | 0.142 | -0.258 | -0.0494 |
| CCT5 C407 (UniProt P48643) | -0.141 | -0.128 | -0.0146 | -0.111 |
| CEP152 C818 (UniProt O94986) | -0.25 | -0.207 | -0.153 | 0.0138 |
| CDC42BPB C1174 (UniProt Q9Y5S2) | -0.204 | -0.074 | -0.33 | 0.193 |
| CCND2 C5 (UniProt P30279) | -0.153 | 0.321 | -0.681 | 0.46 |
| CDK5 C117 (UniProt Q00535) | 1.02 | -0.119 | 0.218 | -0.00093 |
| CDT1 C441 (UniProt Q9H211) | 0.165 | 0.329 | -0.27 | 0.0894 |
| CDK4 C78 (UniProt P11802) | -0.08 | -0.0949 | 0.0653 | -0.0131 |

Single entries from the list.
CENPI C332 | log2 mean competition ratio ([2]; 50 µM): -0.212
CENPK C38 (UniProt Q9BS16) | log2 mean competition ratio ([2]; 200 µM): 0.232
